# Values from PubChem BioAssay AID1508597 (Cure First, 2020)
# Purpose: 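Survival screen with siRNA in ovarian cancer cells derived from patients, with or without rucaparib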 (primary screen)
# Cells: human ovarian carcinoma lines grown from tumours: OCI-P5x (papillary serous) and OCI-C5x (clear cell)
# Knock-down reagent: siRNA pool against human genes, 1.25 pmol siRNA per well
# Time to read-out: 72 h or 96 h, depending on the cell culture
# Challenge: rucaparib 20 µM (about IC30) or vehicle, present until read-out
# Detection: 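ATP luminescence measured at 72 or 96 h according to the culture, then normalised and expressed as percent viability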
# Reading the numbers: viability, normalised: higher = more viable cells remaining
# Rule for the call: 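Active when normalised viability falls below 80 percent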
# Meaning of the calls: active = viability under 80%; inactive = viability 80% or more
# The whole screen tested about 2,100 reagents; this is a part drawn at random. 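Calls flag viability under 80% in either arm, not effects specific to rucaparib; the reference for percent is not stated.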 The record does not give: the 100% reference.
target,rucaparib or vehicle,cell line,technical replicate,"viability, normalised (%)",outcome
ARID5B (GeneID 84159),Rucaparib,OCI-C5x (clear cell),1,35.9,active
ARID5B (GeneID 84159),Rucaparib,OCI-C5x (clear cell),2,22.7,active
ARID5B (GeneID 84159),Rucaparib,OCI-C5x (clear cell),3,19.6,active
ARID5B (GeneID 84159),Rucaparib,OCI-P5x (serous),1,51.1,active
ARID5B (GeneID 84159),Rucaparib,OCI-P5x (serous),2,54.9,active
ARID5B (GeneID 84159),Rucaparib,OCI-P5x (serous),3,56.6,active
ARID5B (GeneID 84159),Vehicle,OCI-C5x (clear cell),1,26,active
ARID5B (GeneID 84159),Vehicle,OCI-C5x (clear cell),2,26.6,active
ARID5B (GeneID 84159),Vehicle,OCI-C5x (clear cell),3,20.2,active
ARID5B (GeneID 84159),Vehicle,OCI-P5x (serous),1,48.6,active
ARID5B (GeneID 84159),Vehicle,OCI-P5x (serous),2,57.1,active
ARID5B (GeneID 84159),Vehicle,OCI-P5x (serous),3,52.6,active
ELANE (GeneID 1991),Rucaparib,OCI-C5x (clear cell),1,43,active
ELANE (GeneID 1991),Rucaparib,OCI-C5x (clear cell),2,49.3,active
ELANE (GeneID 1991),Rucaparib,OCI-C5x (clear cell),3,45.9,active
ELANE (GeneID 1991),Rucaparib,OCI-P5x (serous),1,59.5,active
ELANE (GeneID 1991),Rucaparib,OCI-P5x (serous),2,47.7,active
ELANE (GeneID 1991),Rucaparib,OCI-P5x (serous),3,80.5,inactive
ELANE (GeneID 1991),Vehicle,OCI-C5x (clear cell),1,41.6,active
ELANE (GeneID 1991),Vehicle,OCI-C5x (clear cell),2,43.5,active
ELANE (GeneID 1991),Vehicle,OCI-C5x (clear cell),3,55.6,active
ELANE (GeneID 1991),Vehicle,OCI-P5x (serous),1,63.3,active
ELANE (GeneID 1991),Vehicle,OCI-P5x (serous),2,75,active
ELANE (GeneID 1991),Vehicle,OCI-P5x (serous),3,54.6,active

Ordered by “viability, normalised (%)” (ascending): 2 of the entries above
target,rucaparib or vehicle,cell line,technical replicate,"viability, normalised (%)",outcome
ARID5B (GeneID 84159),Vehicle,OCI-P5x (serous),3,52.6,active
ARID5B (GeneID 84159),Vehicle,OCI-P5x (serous),2,57.1,active
